Test results taken from doi:10.1101/2024.01.16.575708.
No constants are given. Whether binding was seen depends on the method and setting. Binding seen in cells or lysates may run through a third protein. Some binding calls cover weakened binding; strength is not graded here.

The chains behind the UniProt entries cited, without tags or fusion partners.
UniProt Q39017: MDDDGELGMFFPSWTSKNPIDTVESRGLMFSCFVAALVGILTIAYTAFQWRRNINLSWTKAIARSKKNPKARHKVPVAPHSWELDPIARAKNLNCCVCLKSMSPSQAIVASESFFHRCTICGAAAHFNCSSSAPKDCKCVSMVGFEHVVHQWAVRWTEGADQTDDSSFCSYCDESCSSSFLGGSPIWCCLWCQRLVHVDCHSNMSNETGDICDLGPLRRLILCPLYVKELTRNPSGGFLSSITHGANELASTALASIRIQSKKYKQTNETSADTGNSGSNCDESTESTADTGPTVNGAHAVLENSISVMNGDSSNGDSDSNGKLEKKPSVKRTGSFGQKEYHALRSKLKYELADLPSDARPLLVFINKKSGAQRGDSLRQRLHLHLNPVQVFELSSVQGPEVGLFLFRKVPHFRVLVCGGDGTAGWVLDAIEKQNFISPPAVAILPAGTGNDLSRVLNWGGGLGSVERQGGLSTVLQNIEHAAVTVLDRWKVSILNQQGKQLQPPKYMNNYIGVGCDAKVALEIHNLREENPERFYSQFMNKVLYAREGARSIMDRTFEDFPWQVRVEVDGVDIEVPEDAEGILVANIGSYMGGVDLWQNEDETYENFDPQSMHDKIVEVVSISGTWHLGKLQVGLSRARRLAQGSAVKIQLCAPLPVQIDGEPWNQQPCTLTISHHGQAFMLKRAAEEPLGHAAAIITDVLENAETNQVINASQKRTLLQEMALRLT
UniProt Q9FFN7: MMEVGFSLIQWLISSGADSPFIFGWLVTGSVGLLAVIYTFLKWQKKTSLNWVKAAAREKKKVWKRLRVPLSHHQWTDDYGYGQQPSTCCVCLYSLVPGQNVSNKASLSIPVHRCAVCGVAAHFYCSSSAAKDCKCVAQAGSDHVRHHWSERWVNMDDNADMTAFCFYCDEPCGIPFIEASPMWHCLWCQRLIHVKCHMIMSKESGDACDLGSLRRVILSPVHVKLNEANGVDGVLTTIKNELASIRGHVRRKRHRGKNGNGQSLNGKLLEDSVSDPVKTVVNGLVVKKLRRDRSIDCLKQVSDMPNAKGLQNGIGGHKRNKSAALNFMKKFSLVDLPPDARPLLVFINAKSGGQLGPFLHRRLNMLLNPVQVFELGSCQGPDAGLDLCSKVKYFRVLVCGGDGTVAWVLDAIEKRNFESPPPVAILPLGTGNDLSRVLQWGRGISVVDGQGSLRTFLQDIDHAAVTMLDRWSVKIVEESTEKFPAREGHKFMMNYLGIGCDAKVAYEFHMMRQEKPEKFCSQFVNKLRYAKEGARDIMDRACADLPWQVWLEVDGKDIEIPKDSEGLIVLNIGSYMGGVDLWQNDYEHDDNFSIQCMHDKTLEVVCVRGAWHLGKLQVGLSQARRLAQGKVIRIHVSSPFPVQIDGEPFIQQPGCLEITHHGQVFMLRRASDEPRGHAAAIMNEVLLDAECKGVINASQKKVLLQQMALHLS

Key:
[1] = molecular target: DGK1, full length, tagged to GFP or RFP (FRET) (Arabidopsis thaliana) (UniProt Q39017); experiment: FRET or BRET
[2] = molecular target: DGK1-GFP (Arabidopsis thaliana) (UniProt Q39017); experiment: co-IP

| Substance | binding [1] | binding [2] |
| --- | --- | --- |
| DGK2, full length, tagged to GFP or RFP (FRET) (from UniProt Q9FFN7 1-712) | binds | – |
| DGK2-RFP (from UniProt Q9FFN7 1-712) | – | binds |
